In publication PMC7348769:
No constants are given. Whether binding was seen depends on the method and setting. Binding seen in cells or lysates may run through a third protein. Binding can be weak; no strength is given.

By UniProt entry, the sequences of proteins in these tests, tags left out. Where a name states a change or a piece, a line headed by the entry shows the natural chain unless it says otherwise.
UniProt Q15049: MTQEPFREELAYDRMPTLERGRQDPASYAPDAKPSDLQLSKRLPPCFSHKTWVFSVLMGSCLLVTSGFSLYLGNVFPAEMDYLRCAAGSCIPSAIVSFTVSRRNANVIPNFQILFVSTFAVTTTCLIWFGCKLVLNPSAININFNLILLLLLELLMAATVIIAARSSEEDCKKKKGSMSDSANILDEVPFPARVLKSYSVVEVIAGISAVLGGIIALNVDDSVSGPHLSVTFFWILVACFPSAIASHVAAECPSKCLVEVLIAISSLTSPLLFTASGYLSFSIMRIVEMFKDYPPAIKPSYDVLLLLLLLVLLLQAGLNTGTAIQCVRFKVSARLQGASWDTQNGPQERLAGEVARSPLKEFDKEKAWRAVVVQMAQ
UniProt P17302: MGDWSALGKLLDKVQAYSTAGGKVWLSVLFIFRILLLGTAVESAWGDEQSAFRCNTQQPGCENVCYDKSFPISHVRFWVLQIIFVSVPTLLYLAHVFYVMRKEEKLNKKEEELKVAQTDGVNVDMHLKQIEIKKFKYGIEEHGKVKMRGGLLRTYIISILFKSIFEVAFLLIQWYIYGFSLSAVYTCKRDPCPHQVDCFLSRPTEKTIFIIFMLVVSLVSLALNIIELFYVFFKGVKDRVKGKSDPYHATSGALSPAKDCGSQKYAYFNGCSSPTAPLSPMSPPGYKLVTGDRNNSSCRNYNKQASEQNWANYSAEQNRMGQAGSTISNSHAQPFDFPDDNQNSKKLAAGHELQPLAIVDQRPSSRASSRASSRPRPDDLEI

Biological target: MLC1 carrying the pathological mutation c.178-10 t>a (Pt1), X-press tagged (human) (UniProt Q15049)
Assay: co-IP; anti-Xpress mAb and protein A/G PLUS agarose beads on lysates of U251 cells expressing X-press-MLC1; binding buffer 20 mM HEPES pH 7.4, 150 mM NaCl, 1 mM EDTA, 1 mM EGTA, 0.1% Triton X-100, 0.1% sodium deoxycholate; overnight at 4 °C; Western blot

Row | binding | Molecule
1 | no binding | Connexin 43 (from UniProt P17302 1-382)
2 | binds | GlialCAM (glial cell adhesion molecule) (protein, UniProt Q14CZ8 34-416) VNITSPVRLIHGTVGKSALLSVQYSSTSSDRPVVKWQLKRDKPVTVVQSIGTEVIGTLRPDYRDRIRLFENGSLLLSDLQLADEGTYEVEISITDDTFTGEKTINLTVDVPISRPQVLVASTTVLELSEAFTLNCSHENGTKPSYTWLKDGKPLLNDSRMLLSPDQKVLTITRVLMEDDDLYSCMVENPISQGRSLPVKITVYRRSSLYIILSTGGIFLLVTLVTVCACWKPSKRKQKKLEKQNSLEYMDQNDDRLKPEADTLPRSGEQERKNPMALYILKDKDSPETEENPAPEPRSATEPGPPGYSVSPAVPGRSPGLPIRSARRYPRSPARSPATGRTHSSPPRAPSSPGRSRSASRTLRTAGVHIIREQDEAGPVEISA
